Amino acid sequences for entries named in this document (tags omitted). Residues count along the entry.
UniProt P16422, 24-314: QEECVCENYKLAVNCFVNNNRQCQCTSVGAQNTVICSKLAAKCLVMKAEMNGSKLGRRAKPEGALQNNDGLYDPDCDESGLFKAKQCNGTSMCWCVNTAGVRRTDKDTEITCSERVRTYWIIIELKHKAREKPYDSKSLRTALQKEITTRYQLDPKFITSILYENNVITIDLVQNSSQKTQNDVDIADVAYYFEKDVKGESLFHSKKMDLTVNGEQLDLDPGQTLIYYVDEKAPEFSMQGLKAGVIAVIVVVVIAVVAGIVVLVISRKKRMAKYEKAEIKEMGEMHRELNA
UniProt Q99JW5, 24-315: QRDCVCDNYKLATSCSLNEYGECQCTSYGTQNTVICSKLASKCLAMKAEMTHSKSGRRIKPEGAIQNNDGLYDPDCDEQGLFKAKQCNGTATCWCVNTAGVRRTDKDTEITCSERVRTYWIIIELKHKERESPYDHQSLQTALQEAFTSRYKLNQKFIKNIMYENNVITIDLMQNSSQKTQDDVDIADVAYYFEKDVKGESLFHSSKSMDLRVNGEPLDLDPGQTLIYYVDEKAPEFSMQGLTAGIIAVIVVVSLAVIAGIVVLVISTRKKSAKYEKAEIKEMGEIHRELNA
UniProt Q02496, 21-630: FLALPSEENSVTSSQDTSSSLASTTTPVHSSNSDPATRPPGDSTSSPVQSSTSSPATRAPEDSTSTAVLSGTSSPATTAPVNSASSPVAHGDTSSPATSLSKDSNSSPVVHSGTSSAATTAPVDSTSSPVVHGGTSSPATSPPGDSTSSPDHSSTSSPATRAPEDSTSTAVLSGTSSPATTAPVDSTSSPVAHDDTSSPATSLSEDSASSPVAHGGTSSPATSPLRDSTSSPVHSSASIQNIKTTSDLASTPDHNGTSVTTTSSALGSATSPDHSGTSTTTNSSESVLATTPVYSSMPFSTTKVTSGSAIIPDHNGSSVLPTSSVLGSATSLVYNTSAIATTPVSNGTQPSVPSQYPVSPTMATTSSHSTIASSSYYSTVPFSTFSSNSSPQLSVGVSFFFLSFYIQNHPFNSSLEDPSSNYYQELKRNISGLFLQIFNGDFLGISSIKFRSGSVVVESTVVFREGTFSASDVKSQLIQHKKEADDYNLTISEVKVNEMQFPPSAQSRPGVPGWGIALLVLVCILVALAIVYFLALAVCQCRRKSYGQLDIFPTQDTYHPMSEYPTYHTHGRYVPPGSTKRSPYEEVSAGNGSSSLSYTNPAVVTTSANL

According to publication PMC5134568:

Tests used:
[1] = biological target: EpCAM (human, on MDA-MB-231 and Kato III cells) (human) (UniProt P16422); experiment: flow cytometry and confocal fluorescence on cells; conditions: HEK-293T (EpCAM-negative) 0% positive, 5' amine, 3' BHQ2, live cells, 5 min at room temperature, probe annealed at 94 and 72 °C, binding buffer and salt not given (0.1 M TE pH 7.0 only for QD conjugation), protein on the cell surface, label: 5' QD565 (cy5.5 in NIF version), 3' BHQ2 quencher, folded or branched DNA
[2] = biological target: EpCAM (on caerulein-treated Panc02 cells) (mouse (Panc02 murine pancreatic cancer cells)) (UniProt Q99JW5); experiment: fluorescence signal-on of beacon on cells; conditions: 3' BHQ2, live cells, 5 min at room temperature, probe annealed at 94 and 72 °C, binding buffer and salt not given (0.1 M TE pH 7.0 only for QD conjugation), protein on the cell surface, label: 5' QD565 (cy5.5 in NIF version), 3' BHQ2 quencher, folded or branched DNA
[3] = biological target: muc1 (mucin1, on caerulein-treated Panc02 cells) (mouse (Panc02 murine pancreatic cancer cells)) (UniProt Q02496); experiment: fluorescence signal-on of beacon on cells; conditions: no signal on untreated Panc02, 5' amine, 3' BHQ, live cells, 5 min at room temperature, probe annealed at 94 and 72 °C, binding buffer and salt not given (0.1 M TE pH 7.0 only for QD conjugation), protein on the cell surface, label: 5' QD525 (cy5.5 in NIF version), 3' BHQ quencher, folded or branched DNA

Sequence: GGGACACAATGGACGTCCGTAGTTCTGGCTGACTGGTTACCCCTCTAACGGCCGACATGAGAG [EpCAM ALB]
- binding result ([1]; Kato III cells): binds
- binding result ([1]; MDA-MB-231 cells): binds
- binding result ([2]; no signal on untreated Panc02, 5' amine): binds

Sequence: AACCGCCCAAATCCCTAAGCTTTGGATACCCTGGCACAGACACACTACACACGCACA [muc1 ALB]
- binding result [3]: binds

Sequence: GGGACACAATGGACGTCCGTAGTTCTGCGGCCGACATGAGAG [EpCAM mutant ALB]
- binding result ([2]; 1 pmol mutant ALB, signal disappeared, 5' amine): no binding

For at least one entry, the source does not settle the construct or the ends of the probe. Where cells or extracts were used, other partners may take part. For some assays here: A negative result means that nothing was seen under these conditions.
